Hit rate of the full screen: of about 410,000 compounds, about 18,000 (4.4%) were called active. The shares of active, inactive and inconclusive entries below differ from those in the screen. Cut-off read from the data, not from the text of the source: active = activity change below about -60%; inconclusive = no clear call, values can overlap the other calls; inactive = above about -39%.
assay: qHTS Assay for inhibitors of the human cytomegalovirus (HCMV); conditions: HFF cells, HCMV-luciferase reporter, 72 h; at 57.5 µM; hits give low values
Summary of the method: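 Compounds were evaluated in HFFs infected with an HCMV luciferase reporter virus (MOI 1 PFU/cell). Luciferase in lysates collected 72 h post infection served as the replication measure.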
% is set by controls: 0 for no effect and ±100 for the full control effect.

Row | Compound | activity change, negative = inhibition
1 | Cc1ccc(N=Nc2ccc3ccccc3c2O)cc1 | inconclusive: -43%
2 | Fc1ccc(CNC(=S)NC2CCCCC2)cc1 | inconclusive: -57.3%
3 | COc1cc(NC(=O)CCCOc2ccc(Cl)cc2Cl)c(C(=O)O)cc1OC | inconclusive: -51.7%
4 | Cc1c(OCC(=O)N2CCC(C(=O)NCCCC(=O)O)CC2)ccc2c1oc(=O)c1ccccc12 | inconclusive: -46.3%
5 | CCSc1nc(C)c(CC)c(C)c1C(N)=O | inactive: 22.5%
6 | Cc1ccc(-n2nc3c(N4CCC(C(=O)NCCc5cccs5)CC4)nnc(C)c3c2C)cc1 | active: -83%
7 | CC(=O)c1ccc(N2CCN(C(=O)Nc3ccc(Cl)cc3)CC2)cc1 | inconclusive: -46%
8 | COc1ccc(C(=O)NCc2nnc(SCC(=O)N3CCc4ccccc43)n2CCc2ccccc2)cc1 | inconclusive: -42.2%
9 | Cc1ccc2c(n1)sc1c(=O)n(-c3cccc(C(F)(F)F)c3)nnc12 | inactive: 8.19%
10 | COc1ccc(NC(=O)N(C)C[C@H]2Oc3ccc(NS(=O)(=O)c4cccs4)cc3C(=O)N([C@@H](C)CO)C[C@@H]2C)cc1 | inactive: 8.7%
11 | COc1ccc(N2CCN(C(c3ccco3)c3sc4nc(C)nn4c3O)CC2)cc1 (stereo not given) | inconclusive: -57.2%
12 | CN(C)C(=O)Nc1cnc2ccccc2c1 | inactive: 47.4%
13 | C=CCOc1ccc(CNCCO)cc1OCC | inactive: 18.6%
14 | CCOc1ccc(NC(=O)N2CCC(CN3CCCCCC3)CC2)cc1 | inactive: 31.2%
15 | CC(=O)c1cccc(NC(=O)c2ccc3c(=O)n4c(nc3c2)CCCCC4)c1 | inconclusive: -40.1%
16 | COc1cc(C2c3c(n[nH]c3C)C(=O)N2c2ccc(C)cc2)ccc1O (stereo not given) | inconclusive: -51.8%
17 | COc1ccc(CCN(C)C(=O)CSc2nnc(-c3ccco3)o2)cc1OC | inactive: 30.8%
18 | COc1cc2c(cc1OC)C(COc1ccc3c(C)cc(=O)oc3c1)N(C(=O)c1cccc(OC)c1OC)CC2 (stereo not given) | inactive: 9.88%
19 | CCOC(=O)c1ccc(NC(=O)CCNS(=O)(=O)c2cccs2)cc1 | inconclusive: -50%
20 | O=c1ccc(-c2ccc(S(=O)(=O)Nc3ccc(F)cc3)s2)n[nH]1 | inconclusive: -41.2%
21 | COc1cc2c(cc1OC)C(c1ccc(N(C)C)cc1)NCC2 (stereo not given) | inconclusive: -45.7%
22 | Cc1ccc(C(=O)N/N=C\c2ccc(-c3ccc(Cl)c(Cl)c3)o2)cn1 | inconclusive: -57.9%
23 | Cc1ccc(-c2nc(CSCC(=O)NC3CCN(Cc4ccccc4)CC3)c(C)o2)cc1 | inconclusive: -54.6%
24 | Cc1c(-c2cccc(Cl)c2)nc2ccccc2c1C(=O)NC1CC1 | inactive: 9.06%
25 | O=C(Nc1ccc2oc(-c3ccccc3)nc2c1)c1ccc2ccccc2c1 | inactive: -16.9%
26 | COCCCNC(=O)c1ccc(N2CCOCC2)c(NS(=O)(=O)c2ccc(OC)cc2)c1 | inactive: 2.61%
27 | Cc1cc(C)cc(CC2CC(=O)N(c3cc(C)ccc3C)C2=O)c1 (stereo not given) | inactive: -25.7%
28 | CCN(CC)S(=O)(=O)c1cccc(NC(=O)c2ccc(Br)cc2)c1 | inconclusive: -40.7%

17 entries from above, as a markdown table:

| Row | Compound | activity change, negative = inhibition |
| --- | --- | --- |
| 1 | Cc1ccc(N=Nc2ccc3ccccc3c2O)cc1 | inconclusive: -43% |
| 2 | Fc1ccc(CNC(=S)NC2CCCCC2)cc1 | inconclusive: -57.3% |
| 3 | COc1cc(NC(=O)CCCOc2ccc(Cl)cc2Cl)c(C(=O)O)cc1OC | inconclusive: -51.7% |
| 5 | CCSc1nc(C)c(CC)c(C)c1C(N)=O | inactive: 22.5% |
| 6 | Cc1ccc(-n2nc3c(N4CCC(C(=O)NCCc5cccs5)CC4)nnc(C)c3c2C)cc1 | active: -83% |
| 7 | CC(=O)c1ccc(N2CCN(C(=O)Nc3ccc(Cl)cc3)CC2)cc1 | inconclusive: -46% |
| 9 | Cc1ccc2c(n1)sc1c(=O)n(-c3cccc(C(F)(F)F)c3)nnc12 | inactive: 8.19% |
| 10 | COc1ccc(NC(=O)N(C)C[C@H]2Oc3ccc(NS(=O)(=O)c4cccs4)cc3C(=O)N([C@@H](C)CO)C[C@@H]2C)cc1 | inactive: 8.7% |
| 11 | COc1ccc(N2CCN(C(c3ccco3)c3sc4nc(C)nn4c3O)CC2)cc1 (stereo not given) | inconclusive: -57.2% |
| 14 | CCOc1ccc(NC(=O)N2CCC(CN3CCCCCC3)CC2)cc1 | inactive: 31.2% |
| 16 | COc1cc(C2c3c(n[nH]c3C)C(=O)N2c2ccc(C)cc2)ccc1O (stereo not given) | inconclusive: -51.8% |
| 17 | COc1ccc(CCN(C)C(=O)CSc2nnc(-c3ccco3)o2)cc1OC | inactive: 30.8% |
| 18 | COc1cc2c(cc1OC)C(COc1ccc3c(C)cc(=O)oc3c1)N(C(=O)c1cccc(OC)c1OC)CC2 (stereo not given) | inactive: 9.88% |
| 21 | COc1cc2c(cc1OC)C(c1ccc(N(C)C)cc1)NCC2 (stereo not given) | inconclusive: -45.7% |
| 24 | Cc1c(-c2cccc(Cl)c2)nc2ccccc2c1C(=O)NC1CC1 | inactive: 9.06% |
| 27 | Cc1cc(C)cc(CC2CC(=O)N(c3cc(C)ccc3C)C2=O)c1 (stereo not given) | inactive: -25.7% |
| 28 | CCN(CC)S(=O)(=O)c1cccc(NC(=O)c2ccc(Br)cc2)c1 | inconclusive: -40.7% |

(further entries)

Row | Compound | activity change, negative = inhibition
29 | O=C(Nc1ccccc1C(=O)OCc1cc(=O)n2c3c(sc2n1)CCCC3)c1ccccc1 | active: -83.2%
30 | COC(=O)[C@@H](NCc1cccc(CN[C@H](C(=O)OC)c2ccccc2)c1)c1ccccc1 | inconclusive: -45.7%
31 | COc1cccc(C=C(C#N)C(=O)c2ccccc2)c1 | inactive: 3.02%
32 | Cc1ccc(NC(=O)COC(=O)c2ccn(C)n2)cc1 | inactive: -0.688%
33 | Cc1c(Cl)cccc1NC(=O)c1ccc2c(c1)nnn2C1CCCC1 | inactive: -12.5%
34 | CC(=O)Nc1nnc(SCC(=O)Nc2ccc(N3CCOCC3)c(Cl)c2)s1 | inconclusive: 0%
35 | O=C(O)C1CCC(CNCc2ccccc2Cl)CC1 (stereo not given) | inconclusive: -56.4%
36 | Cc1sc2ncnc(-n3nnc4ccccc43)c2c1C | inconclusive: -48.6%
37 | CCOC(=O)Cn1c(=O)oc2cc(S(=O)(=O)N3CCCc4ccccc43)ccc21 | inconclusive: -53.1%
38 | CCN1CCN(C(c2ccc(C(F)(F)F)cc2)c2ccc3cccnc3c2O)CC1 (stereo not given) | active: -84.8%
39 | O=C(CSc1nnc(C23CC4CC(CC(C4)C2)C3)o1)Nc1ccc(N2CCOCC2)c(Cl)c1 | inconclusive: -48.6%
40 | O=C1C(Cl)=C(NS(=O)(=O)c2ccc([N+](=O)[O-])cc2)C(=O)c2ccccc21 | inconclusive: 0%
41 | COc1ccc(N(CC(=O)Nc2c(C)n(C)n(-c3ccccc3)c2=O)S(=O)(=O)c2ccc(F)cc2)cc1 | inconclusive: -46.5%
42 | CCc1cc2c(=O)[nH]c(-c3ccccn3)nc2s1 | active: -101%
43 | C=CCc1c(C)nc2nc(SCC(=O)Nc3cccc(Cl)c3)nn2c1C | inconclusive: -46.7%
44 | Cc1c(/C(O)=C2/C(=O)C(=O)N(CCN3CCOCC3)C2c2ccccn2)cnn1-c1ccccc1 (stereo not given) | active: -78.2%
45 | CN(C)c1ccc(/C=N\NC(=O)c2ccc(Cn3cc(Cl)cn3)cc2)cc1 | inconclusive: -42.7%
46 | COc1cc(/C=C(\C#N)C(=O)NCCc2ccccc2)cc(OC)c1O | inconclusive: -44.9%
47 | Cn1nnnc1Sc1ncnc2scc(-c3cccc(Br)c3)c12 | inactive: -17.6%
48 | Cc1cc2c(=O)n(Cc3ccco3)c(SCC(=O)N3CCCc4ccccc43)nc2s1 | active: -88%
49 | Cc1ccc(C)c(CSC2=NC(C)(C)Nc3ccccc32)c1 | inconclusive: -48.3%
50 | COC(=O)[C@@]12C[C@@H](CC(=O)N3CCN(C(=O)c4ccco4)CC3)C(=O)N(Cc3ccco3)C1=CCC(C)(C)C2 | inconclusive: -42.8%
51 | COc1cccc(C2CC(c3ccccc3C)n3nc(N)nc3N2)c1 (stereo not given) | inactive: 3.19%
52 | Cc1nn(C(C)C(=O)NCCC2=CCCCC2)c(=O)c2nn(-c3ccccc3)c(C)c12 (stereo not given) | inactive: -28.7%
53 | COc1cccc(C(C)(O)c2nc(-c3cnc4ccccc4c3)cs2)c1 (stereo not given) | active: -62.5%
54 | CCOC(=O)c1cc(-c2ccccc2)nc2c(O)cccc12 | inconclusive: -42%
55 | CSc1ncccc1C(=O)N1CCC(C)(C(=O)O)C1 (stereo not given) | inactive: 15.1%
